From US6743892B1, “Molecules that home to a selected organ in vivo” (La Jolla Cancer Research Foundation, priority 1995, dated 2004)

Tested on: brain
Experiment: In vivo panning of phage peptide display libraries, brain as the selected organ, kidney as control organ
Parameters: species or system mice
Conditions: phage recovered from brain; 73 cloned phage sequenced

Row | Substance | % PHAGE (of the clones sequenced)
1 | CANAQSHC (displayed on phage) [peptide from phage recovered from brain] | (1.4%)
2 | CETLPAC (displayed on phage) [peptide from phage recovered from brain] | (1.4%)
3 | CGNPSYRC (displayed on phage) [peptide from phage recovered from brain] | (1.4%)
4 | CGRSLDAC (displayed on phage) [peptide from phage recovered from brain] | (1.4%)
5 | CGVRLGC (displayed on phage) [peptide from phage recovered from brain] | (4.1%)
6 | CKDWGRIC (displayed on phage) [peptide from phage recovered from brain] | (2.8%)
7 | CLDWGRIC (displayed on phage) [peptide from phage recovered from brain] | (2.8%)
8 | CLSSRLDAC (cyclic) | (8.2%)
9 | CNSRLHLRC (displayed on phage) | (21.9%)
10 | CNSRLQLRC (displayed on phage) [peptide from phage recovered from brain] | (5.5%)
11 | CRHWFDVVC (displayed on phage) [peptide from phage recovered from brain] | (1.4%)
12 | CRTGTLFC (displayed on phage) [peptide from phage recovered from brain] | (1.4%)
13 | CTRITESC (displayed on phage) [peptide from phage recovered from brain] | (2.8%)
14 | CVLRGGRC (displayed on phage) [peptide from phage recovered from brain] | (6.8%)
15 | LNCDYQGTNPATSVSVPCTV (displayed on phage) [peptide from phage recovered from brain] | (1.4%)
16 | WRCVLREGPAGGCAWFNRHRL (displayed on phage) | (13.7%)
17 | YPCGGEAVAGVSSVRTMCSE (displayed on phage) [peptide from phage recovered from brain] | (1.4%)
